Data from US20140274906A1 (NONO, published 2014).
Results are given in words; binding and its absence hold for the method and conditions named. Binding can be weak; no strength is given.

Target: ND2.1.3
Experiment: dot blot (FIG. 2B); ND2.1.3 is the weaker comparator

For KPASADGHRGPSAAFVPAA (biotinylated (position not given)) [biotinylated Src 40-58 peptide], the binding was “binds”.
